Experimental data: the supplement of paper PMC10849652
Some of the results follow.

Protein sequences, listed by entry. Tags and fused reporters are not part of them. Lines headed by an entry give the natural chain unless they say otherwise; changes in a name come on top.
UniProt Q6NUK1: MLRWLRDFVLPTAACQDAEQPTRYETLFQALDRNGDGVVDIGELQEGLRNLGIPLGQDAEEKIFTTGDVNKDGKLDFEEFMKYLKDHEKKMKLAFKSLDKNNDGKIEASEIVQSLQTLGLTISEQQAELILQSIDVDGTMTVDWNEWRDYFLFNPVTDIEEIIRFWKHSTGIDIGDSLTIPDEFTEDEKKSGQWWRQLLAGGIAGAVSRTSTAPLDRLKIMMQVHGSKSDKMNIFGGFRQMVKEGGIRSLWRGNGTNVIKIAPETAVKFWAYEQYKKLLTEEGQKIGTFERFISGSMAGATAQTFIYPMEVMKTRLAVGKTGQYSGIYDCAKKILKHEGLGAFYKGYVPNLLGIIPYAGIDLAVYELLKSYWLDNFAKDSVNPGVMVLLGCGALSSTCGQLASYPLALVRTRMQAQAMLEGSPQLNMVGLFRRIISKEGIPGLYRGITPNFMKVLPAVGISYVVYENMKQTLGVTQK
UniProt Q9H1N7: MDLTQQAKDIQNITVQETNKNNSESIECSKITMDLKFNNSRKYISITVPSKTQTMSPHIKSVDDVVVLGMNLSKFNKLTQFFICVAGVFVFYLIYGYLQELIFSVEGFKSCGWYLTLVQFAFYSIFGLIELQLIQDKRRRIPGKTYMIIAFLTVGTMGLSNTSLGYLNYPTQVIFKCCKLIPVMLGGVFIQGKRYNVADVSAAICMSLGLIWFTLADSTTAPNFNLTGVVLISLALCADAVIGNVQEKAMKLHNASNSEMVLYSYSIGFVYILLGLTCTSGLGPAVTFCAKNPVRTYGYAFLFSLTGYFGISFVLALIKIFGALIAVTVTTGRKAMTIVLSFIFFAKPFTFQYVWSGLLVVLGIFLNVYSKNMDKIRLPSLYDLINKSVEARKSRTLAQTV
UniProt Q8NBI5: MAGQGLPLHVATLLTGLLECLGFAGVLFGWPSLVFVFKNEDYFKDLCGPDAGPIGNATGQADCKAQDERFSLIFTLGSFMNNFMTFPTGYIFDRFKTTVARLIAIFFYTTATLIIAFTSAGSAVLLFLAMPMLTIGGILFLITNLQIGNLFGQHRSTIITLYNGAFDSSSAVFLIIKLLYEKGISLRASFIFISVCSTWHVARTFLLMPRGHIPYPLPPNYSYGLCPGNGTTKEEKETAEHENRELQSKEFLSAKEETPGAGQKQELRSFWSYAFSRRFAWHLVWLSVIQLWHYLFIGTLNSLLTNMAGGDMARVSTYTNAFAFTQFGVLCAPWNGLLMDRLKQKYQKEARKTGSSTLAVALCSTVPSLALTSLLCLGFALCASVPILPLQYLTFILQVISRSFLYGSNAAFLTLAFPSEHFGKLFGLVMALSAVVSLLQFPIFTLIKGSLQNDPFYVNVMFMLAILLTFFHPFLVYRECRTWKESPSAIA
UniProt Q9HC21: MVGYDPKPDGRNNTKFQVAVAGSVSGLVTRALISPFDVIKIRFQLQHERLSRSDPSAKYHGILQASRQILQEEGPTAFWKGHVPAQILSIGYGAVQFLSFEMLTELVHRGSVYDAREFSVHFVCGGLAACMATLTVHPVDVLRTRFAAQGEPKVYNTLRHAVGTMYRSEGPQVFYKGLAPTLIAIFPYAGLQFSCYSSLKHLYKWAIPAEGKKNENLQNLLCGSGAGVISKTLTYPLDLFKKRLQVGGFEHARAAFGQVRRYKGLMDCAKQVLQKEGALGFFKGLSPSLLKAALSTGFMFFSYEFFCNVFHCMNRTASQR
UniProt P49281: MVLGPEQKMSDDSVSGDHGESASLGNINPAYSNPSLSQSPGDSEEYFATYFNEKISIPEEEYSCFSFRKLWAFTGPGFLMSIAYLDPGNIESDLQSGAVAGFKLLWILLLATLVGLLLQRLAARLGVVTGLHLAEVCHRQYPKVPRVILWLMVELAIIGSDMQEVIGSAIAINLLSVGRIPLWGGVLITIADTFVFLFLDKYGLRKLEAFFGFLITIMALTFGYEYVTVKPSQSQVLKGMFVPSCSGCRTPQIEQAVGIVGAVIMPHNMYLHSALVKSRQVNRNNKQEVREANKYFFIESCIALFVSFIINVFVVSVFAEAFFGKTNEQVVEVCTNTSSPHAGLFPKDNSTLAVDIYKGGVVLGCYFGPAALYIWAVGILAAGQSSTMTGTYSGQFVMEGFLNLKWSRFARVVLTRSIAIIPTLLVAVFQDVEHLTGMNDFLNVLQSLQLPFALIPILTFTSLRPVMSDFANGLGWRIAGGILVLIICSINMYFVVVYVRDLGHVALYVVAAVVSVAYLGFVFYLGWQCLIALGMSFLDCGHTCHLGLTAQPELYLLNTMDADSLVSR
UniProt L0R6Q1: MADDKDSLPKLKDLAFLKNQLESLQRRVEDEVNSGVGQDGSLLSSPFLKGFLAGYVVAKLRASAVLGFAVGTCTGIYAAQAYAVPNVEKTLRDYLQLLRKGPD
UniProt Q96H78: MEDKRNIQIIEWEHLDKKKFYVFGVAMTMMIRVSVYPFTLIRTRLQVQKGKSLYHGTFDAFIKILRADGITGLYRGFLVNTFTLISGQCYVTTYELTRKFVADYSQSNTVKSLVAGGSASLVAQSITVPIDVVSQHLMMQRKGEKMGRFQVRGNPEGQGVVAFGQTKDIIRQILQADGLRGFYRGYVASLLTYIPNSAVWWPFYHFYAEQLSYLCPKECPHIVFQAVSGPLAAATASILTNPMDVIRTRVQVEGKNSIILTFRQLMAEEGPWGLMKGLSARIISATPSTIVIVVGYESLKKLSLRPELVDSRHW
UniProt Q8WUM9: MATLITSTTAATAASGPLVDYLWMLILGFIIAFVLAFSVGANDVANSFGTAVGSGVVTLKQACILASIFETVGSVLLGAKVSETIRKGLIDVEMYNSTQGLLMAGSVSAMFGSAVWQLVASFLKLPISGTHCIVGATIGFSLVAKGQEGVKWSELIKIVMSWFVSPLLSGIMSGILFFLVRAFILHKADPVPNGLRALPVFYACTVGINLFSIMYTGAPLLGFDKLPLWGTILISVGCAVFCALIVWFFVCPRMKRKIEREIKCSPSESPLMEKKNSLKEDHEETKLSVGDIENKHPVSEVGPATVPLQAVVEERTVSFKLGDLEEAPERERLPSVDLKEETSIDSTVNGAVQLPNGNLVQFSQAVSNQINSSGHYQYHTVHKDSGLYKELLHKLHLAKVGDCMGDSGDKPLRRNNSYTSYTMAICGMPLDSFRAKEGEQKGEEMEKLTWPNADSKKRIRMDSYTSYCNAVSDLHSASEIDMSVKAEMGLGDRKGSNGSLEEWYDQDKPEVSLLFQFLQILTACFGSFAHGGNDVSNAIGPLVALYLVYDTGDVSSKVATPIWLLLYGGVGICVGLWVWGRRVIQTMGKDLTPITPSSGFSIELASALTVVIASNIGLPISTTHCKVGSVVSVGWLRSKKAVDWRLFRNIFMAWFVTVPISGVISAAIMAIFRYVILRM
UniProt P12236: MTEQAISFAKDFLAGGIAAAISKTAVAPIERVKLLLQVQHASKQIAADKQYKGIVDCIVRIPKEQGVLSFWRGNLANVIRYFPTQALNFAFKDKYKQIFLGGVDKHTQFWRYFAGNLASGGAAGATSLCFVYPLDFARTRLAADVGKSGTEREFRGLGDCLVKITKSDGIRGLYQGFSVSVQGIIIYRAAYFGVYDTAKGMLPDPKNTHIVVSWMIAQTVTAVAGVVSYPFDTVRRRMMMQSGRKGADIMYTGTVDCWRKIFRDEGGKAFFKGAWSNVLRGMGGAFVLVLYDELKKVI
UniProt Q02978: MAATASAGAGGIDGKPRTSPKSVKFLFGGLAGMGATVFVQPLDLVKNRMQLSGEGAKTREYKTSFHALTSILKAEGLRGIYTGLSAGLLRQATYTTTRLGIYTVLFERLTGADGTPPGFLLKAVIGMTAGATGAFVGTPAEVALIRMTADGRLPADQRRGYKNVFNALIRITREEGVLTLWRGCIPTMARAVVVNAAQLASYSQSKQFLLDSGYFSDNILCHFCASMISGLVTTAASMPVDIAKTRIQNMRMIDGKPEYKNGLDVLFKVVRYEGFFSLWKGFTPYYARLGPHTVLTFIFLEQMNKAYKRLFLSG
UniProt Q15043: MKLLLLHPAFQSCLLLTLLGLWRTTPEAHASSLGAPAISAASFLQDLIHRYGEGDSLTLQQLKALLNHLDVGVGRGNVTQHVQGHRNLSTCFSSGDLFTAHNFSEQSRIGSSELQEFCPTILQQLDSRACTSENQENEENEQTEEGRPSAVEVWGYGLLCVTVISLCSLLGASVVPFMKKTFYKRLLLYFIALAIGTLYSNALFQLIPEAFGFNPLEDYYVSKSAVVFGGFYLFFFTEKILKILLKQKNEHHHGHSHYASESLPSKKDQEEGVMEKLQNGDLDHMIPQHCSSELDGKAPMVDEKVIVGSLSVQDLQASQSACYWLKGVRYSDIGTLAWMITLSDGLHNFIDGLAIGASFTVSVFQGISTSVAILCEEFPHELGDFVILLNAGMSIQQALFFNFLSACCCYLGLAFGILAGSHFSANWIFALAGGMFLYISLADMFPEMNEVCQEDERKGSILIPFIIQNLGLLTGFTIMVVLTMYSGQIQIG
UniProt Q8WV83: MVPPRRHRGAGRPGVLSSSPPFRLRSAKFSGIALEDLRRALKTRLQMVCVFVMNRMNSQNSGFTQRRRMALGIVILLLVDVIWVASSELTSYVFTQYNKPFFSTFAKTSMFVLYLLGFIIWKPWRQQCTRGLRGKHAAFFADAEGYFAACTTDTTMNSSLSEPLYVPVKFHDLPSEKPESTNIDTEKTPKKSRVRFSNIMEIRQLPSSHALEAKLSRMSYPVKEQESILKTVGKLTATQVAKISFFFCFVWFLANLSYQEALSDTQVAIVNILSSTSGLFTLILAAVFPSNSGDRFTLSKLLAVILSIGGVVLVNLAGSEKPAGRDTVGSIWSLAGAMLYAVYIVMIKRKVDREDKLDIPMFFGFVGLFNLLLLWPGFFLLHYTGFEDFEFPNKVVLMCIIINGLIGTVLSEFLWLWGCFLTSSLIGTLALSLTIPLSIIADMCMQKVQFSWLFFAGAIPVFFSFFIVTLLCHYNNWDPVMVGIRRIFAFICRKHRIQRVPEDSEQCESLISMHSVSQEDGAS
UniProt P41440: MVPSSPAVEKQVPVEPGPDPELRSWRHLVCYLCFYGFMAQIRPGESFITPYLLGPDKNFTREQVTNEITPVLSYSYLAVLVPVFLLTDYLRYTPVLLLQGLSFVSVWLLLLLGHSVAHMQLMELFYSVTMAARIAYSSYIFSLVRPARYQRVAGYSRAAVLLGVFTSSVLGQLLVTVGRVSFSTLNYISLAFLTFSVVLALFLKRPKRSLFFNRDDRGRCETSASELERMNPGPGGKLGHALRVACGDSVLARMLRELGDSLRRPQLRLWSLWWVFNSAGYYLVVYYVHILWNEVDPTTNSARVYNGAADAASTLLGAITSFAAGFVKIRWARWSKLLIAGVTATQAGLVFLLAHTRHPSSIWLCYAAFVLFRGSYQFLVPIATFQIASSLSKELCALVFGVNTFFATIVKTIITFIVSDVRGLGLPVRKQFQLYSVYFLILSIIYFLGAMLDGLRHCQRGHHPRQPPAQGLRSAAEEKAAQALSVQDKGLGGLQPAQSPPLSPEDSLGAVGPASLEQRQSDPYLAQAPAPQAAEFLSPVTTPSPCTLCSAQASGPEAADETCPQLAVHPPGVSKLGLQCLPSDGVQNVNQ
UniProt Q9BRY0: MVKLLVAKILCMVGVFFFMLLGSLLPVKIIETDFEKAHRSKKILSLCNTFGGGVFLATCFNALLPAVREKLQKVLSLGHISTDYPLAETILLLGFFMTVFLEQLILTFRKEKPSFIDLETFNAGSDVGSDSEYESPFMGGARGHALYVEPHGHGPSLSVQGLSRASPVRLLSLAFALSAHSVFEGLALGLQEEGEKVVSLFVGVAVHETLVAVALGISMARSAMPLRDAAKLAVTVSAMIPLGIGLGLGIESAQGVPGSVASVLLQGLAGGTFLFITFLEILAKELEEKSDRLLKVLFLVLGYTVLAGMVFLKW
UniProt Q96QE2: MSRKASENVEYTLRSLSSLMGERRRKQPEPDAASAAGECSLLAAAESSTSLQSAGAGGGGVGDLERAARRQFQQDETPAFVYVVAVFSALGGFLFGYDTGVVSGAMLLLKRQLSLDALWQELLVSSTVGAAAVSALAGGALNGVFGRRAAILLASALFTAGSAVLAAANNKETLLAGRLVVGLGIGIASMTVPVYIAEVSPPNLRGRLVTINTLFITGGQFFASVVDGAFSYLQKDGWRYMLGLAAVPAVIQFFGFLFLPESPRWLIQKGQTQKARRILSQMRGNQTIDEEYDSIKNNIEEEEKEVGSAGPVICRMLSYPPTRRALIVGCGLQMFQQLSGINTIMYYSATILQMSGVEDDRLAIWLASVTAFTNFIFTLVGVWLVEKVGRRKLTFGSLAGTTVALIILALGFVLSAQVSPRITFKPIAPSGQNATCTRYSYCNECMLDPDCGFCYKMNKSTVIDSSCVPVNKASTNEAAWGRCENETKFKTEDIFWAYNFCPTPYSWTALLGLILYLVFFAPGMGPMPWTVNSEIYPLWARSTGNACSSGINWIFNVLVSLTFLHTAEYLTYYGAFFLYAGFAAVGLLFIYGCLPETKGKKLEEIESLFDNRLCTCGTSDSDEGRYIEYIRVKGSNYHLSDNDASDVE

What was measured:
Experiment in all cases: log2 fold change, soluble protein after heating vs DMSO (PISA); higher = thermal stabilisation; K562 cells, 10 uM, 30 min; active = over 0.2 and 3.5 SD of the protein, either way, in both replicates (recomputed)
[1] = compound: CS(=O)(=O)c1ccc(-c2cnc(N)c(C(=O)Nc3ccccc3)n2)cc1
In short: (§1)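 Aliquots of K562 cells (2×10^6 cells/mL) treated with 10 μM compound for 30 min were heated for 3 min over 48°C-58°C. After pooling and extraction in PBS with 0.5% NP-40 at 4°C, soluble protein from a 21,000xg, 90 min spin was quantified by TMTpro 16plex LC-MS/MS with channel sums equalised. Thermal stability is expressed against control samples, from duplicates, as a log2 fold change.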

[2] = compound: C[C@@H](Oc1cc(-c2cnn(C3CCNCC3)c2)cnc1N)c1c(Cl)ccc(F)c1Cl [crizotinib]
In short: as §1

[3] = compound: C[C@@H]1COCCN1C2=NC(=NC(=C2)C3(CC3)S(=O)(=O)C)C4=C5C=CNC5=CC=C4
In short: as §1

[4] = compound: C[C@H](C1=CC=C(C=C1)C(=O)NC2=C3C=CNC3=NC=C2)N
In short: as §1

[5] = compound: C[C@H](Nc1ncnc2nc[nH]c12)c1cc2cccc(Cl)c2c(=O)n1-c1ccccc1 [duvelisib]
In short: as §1

[6] = compound: Cc1cc(Nc2cc(CN3CCOCC3)c3nc(C)c(Cc4ccc(Cl)cc4F)n3n2)n[nH]1 [gandotinib]
In short: as §1

[7] = compound: Cc1cc(Nc2cc(N3CCN(C)CC3)nc(Sc3ccc(NC(=O)C4CC4)cc3)n2)n[nH]1 [tozasertib]
In short: as §1

[8] = compound: Cc1cc(SCc2sc(-c3ccc(C(F)(F)F)cc3)nc2C)ccc1OCC(=O)O
In short: as §1

[9] = compound: Cc1ccc(-n2nc(C(C)(C)C)cc2NC(=O)Nc2ccc(OCCN3CCOCC3)c3ccccc23)cc1 [doramapimod]
In short: as §1

[10] = compound: Cc1ccc(C(=O)N(CCCN)[C@@H](c2nc3cc(Cl)ccc3c(=O)n2Cc2ccccc2)C(C)C)cc1 [ispinesib]
In short: as §1

[11] = compound: Cc1ccc(NC(=O)c2ccc(CN3CC[C@H](N(C)C)C3)c(C(F)(F)F)c2)cc1Nc1nccc(-c2cncnc2)n1 [bafetinib]
In short: as §1

[12] = compound: Cc1cccc(CC(=O)N2CCc3c2ccc(-c2cn(C)c4ncnc(N)c24)c3F)n1
In short: as §1

[13] = compound: Cc1cn(-c2cc(NC(=O)c3ccc(C)c(Nc4nccc(-c5cccnc5)n4)c3)cc(C(F)(F)F)c2)cn1 [nilotinib]
In short: as §1

[14] = compound: Cc1nc(Nc2n[nH]c3c2CN(C(=O)N[C@H](CN(C)C)c2ccccc2)C3(C)C)c2sccc2n1
In short: as §1

[15] = compound: Cc1nc(Nc2ncc(C(=O)Nc3c(C)cccc3Cl)s2)cc(N2CCN(CCO)CC2)n1 [dasatinib]
In short: as §1

[16] = compound: Cc1ncc(-c2ccnc(Nc3ccc(S(C)(=O)=O)cc3)n2)n1C(C)C
In short: as §1

[17] = compound: Cn1cc(-c2ccc3c(c2)CCN3C(=O)Cc2cccc(C(F)(F)F)c2)c2c(N)ncnc21
In short: as §1

[18] = compound: Cn1cc(-c2ccc3nnc(C(F)(F)c4ccc5ncccc5c4)n3n2)cn1
In short: as §1

[19] = compound: Cn1cncc1[C@@](N)(c1ccc(Cl)cc1)c1ccc2c(c1)c(-c1cccc(Cl)c1)cc(=O)n2C [tipifarnib]
In short: as §1

[20] = compound: FC(F)(F)c1ccc(/C=C/c2nc(COc3ccc(CCCCn4ccnn4)cc3)co2)cc1 [mubritinib]
In short: as §1

Measured: log2 fold change

SLC25A24 (UniProt Q6NUK1)
inactive: [1] 0.024 | [2] 0.074 | [3] 0.052 | [4] -0.041 | [5] -0.005 | [6] 0.024 | [7] -0.001 | [8] -0.052 | [9] -0.024 | [10] 0.008 | [11] -0.058 | [12] 0.012 | [13] -0.018 | [14] 0.016 | [15] 0.036 | [16] -0.03 | [17] 0.02 | [18] 0.035 | [19] 0.046 | [20] 0.03

SLC35B3 (UniProt Q9H1N7)
inactive: [1] 0.071 | [2] -0.011 | [3] 0.164 | [4] -0.047 | [5] 0.069 | [7] 0 | [8] -0.096 | [9] 0 | [10] -0.019 | [11] -0.007 | [13] 0.047 | [14] -0.083 | [15] 0.034 | [16] -0.099 | [17] 0.038 | [18] -0.044 | [20] -0.036

SLC43A3 isoform 2 (UniProt Q8NBI5)
inactive: [1] 0.028 | [2] 0.115 | [3] 0.063 | [4] -0.079 | [5] 0.069 | [6] -0.063 | [7] -0.07 | [8] -0.093 | [9] -0.016 | [10] 0.027 | [11] 0.033 | [12] -0.016 | [13] 0.096 | [14] 0.004 | [15] 0.019 | [16] 0.016 | [17] 0.023 | [18] -0.026 | [19] 0.001 | [20] 0.04

SLC25A19 (UniProt Q9HC21)
inactive: [1] 0.005 | [2] 0.086 | [3] 0.02 | [4] -0.041 | [5] 0.002 | [6] 0.033 | [7] -0.012 | [8] -0.041 | [9] -0.03 | [10] 0.037 | [11] -0.055 | [12] -0.002 | [13] 0.009 | [14] 0.031 | [15] 0.034 | [16] -0.015 | [17] 0.03 | [18] 0.011 | [19] 0.039 | [20] 0.006

SLC16A1 (UniProt P53985)
inactive: [1] 0.037 | [2] 0.118 | [3] 0.037 | [4] -0.025 | [5] 0.159 | [6] -0.169 | [7] -0.038 | [8] 0.001 | [9] 0.04 | [10] 0.068 | [11] 0.047 | [12] 0.005 | [13] 0.092 | [14] -0.062 | [15] 0.033 | [16] 0.03 | [17] -0.007 | [18] -0.093 | [19] -0.025 | [20] 0.053

SLC11A2 isoform 3 (UniProt P49281)
inactive: [1] 0.106 | [2] -0.149 | [3] -0.002 | [4] -0.114 | [5] 0.124 | [7] -0.024 | [8] -0.192 | [9] 0.052 | [10] -0.04 | [11] -0.098 | [13] 0.021 | [14] 0 | [15] -0.039 | [16] -0.041 | [17] 0.134 | [18] -0.097 | [19] 0.032 | [20] -0.039

SLC35A4 (UniProt L0R6Q1)
inactive: [1] -0.007 | [2] 0.161 | [3] 0.055 | [4] -0.134 | [5] 0.129 | [6] 0.14 | [7] 0.033 | [8] -0.096 | [9] -0.01 | [10] 0.08 | [11] -0.088 | [12] 0.136 | [13] 0.054 | [14] -0.021 | [15] 0.124 | [16] -0.058 | [17] 0.065 | [18] 0.234 | [19] -0.119 | [20] 0.05

SLC7A5 (UniProt Q01650)
inactive: [1] -0.023 | [2] 0.062 | [3] 0.039 | [4] -0.161 | [5] 0.05 | [6] -0.065 | [7] 0.004 | [8] -0.035 | [9] 0.027 | [10] 0.03 | [11] 0.026 | [12] -0.017 | [13] 0.064 | [14] -0.028 | [15] 0.05 | [16] 0.003 | [17] 0.053 | [18] 0 | [19] -0.034 | [20] 0.031

SLC25A44 (UniProt Q96H78)
inactive: [1] -0.006 | [2] 0.066 | [3] -0.044 | [4] -0.01 | [5] 0.008 | [6] -0.068 | [7] -0.024 | [8] 0.017 | [9] -0.005 | [11] 0.029 | [12] 0.048 | [13] -0.037 | [14] -0.028 | [15] 0.05 | [16] 0.026 | [17] 0.086 | [19] 0.032 | [20] 0.036

SLC20A1 (UniProt Q8WUM9)
inactive: [1] 0.044 | [2] 0.015 | [3] -0.037 | [4] -0.013 | [5] 0.145 | [6] -0.038 | [7] -0.085 | [8] -0.018 | [9] -0.003 | [10] -0.057 | [11] -0.017 | [12] -0.065 | [13] -0.004 | [14] -0.058 | [15] 0.032 | [16] 0.01 | [17] -0.004 | [18] -0.035 | [19] 0.001 | [20] 0.035

SLC25A6 (UniProt P12236)
inactive: [1] -0.007 | [2] 0.075 | [3] 0.037 | [4] -0.032 | [5] 0.042 | [6] -0.027 | [7] -0.016 | [8] 0.002 | [9] -0.036 | [10] -0.002 | [11] -0.033 | [12] -0.013 | [13] -0.029 | [14] 0.048 | [15] 0.045 | [16] -0.038 | [17] 0.004 | [18] 0.023 | [19] -0.011 | [20] -0.011

SLC25A11 (UniProt Q02978)
inactive: [1] -0.015 | [2] 0.042 | [3] 0.012 | [4] -0.046 | [5] 0 | [6] 0.013 | [7] -0.022 | [8] -0.034 | [9] -0.03 | [10] 0.005 | [11] -0.053 | [12] 0.033 | [13] 0.016 | [14] -0.029 | [15] 0.056 | [16] -0.028 | [17] 0.034 | [18] -0.003 | [19] -0.009 | [20] 0.034

SLC39A14 (UniProt Q15043)
inactive: [1] 0.047 | [2] 0.014 | [3] -0.064 | [4] -0.024 | [5] 0.058 | [6] 0.024 | [7] -0.064 | [8] -0.037 | [9] -0.016 | [10] -0.045 | [11] -0.036 | [12] -0.046 | [13] 0.033 | [14] -0.001 | [15] 0.239 | [16] 0.011 | [17] 0.061 | [18] -0.001 | [19] 0.027 | [20] 0.043

SLC35F5 (UniProt Q8WV83)
inactive: [1] -0.115 | [2] -0.019 | [3] -0.309 | [6] -0.612 | [9] 0.028 | [11] -0.05 | [12] 0.1 | [13] -0.207 | [14] -0.062 | [16] -0.222 | [19] 0.025

SLC19A1 (UniProt P41440)
inactive: [1] -0.097 | [2] 0.086 | [3] 0.041 | [4] -0.088 | [6] -0.107 | [8] 0.012 | [9] -0.037 | [10] 0.083 | [11] 0.11 | [12] 0.039 | [13] 0.01 | [14] 0.012 | [15] 0.024 | [16] 0.026 | [17] 0.103 | [18] -0.026 | [19] 0.051 | [20] 0.074

SLC39A3 (UniProt Q9BRY0)
inactive: [1] -0.025 | [3] 0.137 | [4] 0.029 | [5] 0.146 | [6] -0.071 | [7] 0.003 | [8] -0.102 | [10] -0.078 | [11] 0.017 | [12] 0.158 | [13] -0.022 | [14] -0.019 | [15] 0 | [16] 0.034 | [17] 0.002 | [18] 0.06 | [19] 0.004 | [20] 0.002

2 neighbouring records from above, for reference:
SLC35B3 (UniProt Q9H1N7)
inactive: [1] 0.071 | [2] -0.011 | [3] 0.164 | [4] -0.047 | [5] 0.069 | [7] 0 | [8] -0.096 | [9] 0 | [10] -0.019 | [11] -0.007 | [13] 0.047 | [14] -0.083 | [15] 0.034 | [16] -0.099 | [17] 0.038 | [18] -0.044 | [20] -0.036

SLC43A3 isoform 2 (UniProt Q8NBI5)
inactive: [1] 0.028 | [2] 0.115 | [3] 0.063 | [4] -0.079 | [5] 0.069 | [6] -0.063 | [7] -0.07 | [8] -0.093 | [9] -0.016 | [10] 0.027 | [11] 0.033 | [12] -0.016 | [13] 0.096 | [14] 0.004 | [15] 0.019 | [16] 0.016 | [17] 0.023 | [18] -0.026 | [19] 0.001 | [20] 0.04

Remaining list, next part

SLC2A13 (UniProt Q96QE2)
inactive: [1] -0.121 | [3] 0.093 | [4] -0.087 | [5] 0.051 | [6] 0.072 | [7] 0.056 | [8] -0.126 | [10] -0.182 | [11] -0.047 | [12] -0.089 | [15] 0.183 | [17] 0.056 | [18] -0.006 | [19] 0.064
